Experimental data reported in publication PMC10544015 (Journal of Medicinal Chemistry, 2023).
Square brackets hold non-standard residues; d marks the D form. Ahx = NCCCCCC(=O)O

What was measured:
[1] = peptide synthesis; conditions: TFA salts; for final HPLC purity / isolated yield: whole synthesis
[2] = general procedure: Fmoc solid-phase peptide synthesis; Rink amide AM resin (loading 0.13–0.6 mmol/g); preloaded Tyr(tBu)-Wang (0.45 mmol/g) and Ala-Wang (0.68 mmol/g); HBTU/DIPEA (manual); DIC/Oxyma (automated); conditions: whole synthesis, scale of the general procedure 0.1 mmol, TFA salts; for final HPLC purity: reversed-phase HPLC

Substance	final HPLC purity [1]	isolated yield [1]	final HPLC purity [2]	isolated yield [2]	difficulty met ([1]; cyclisation step)
Ac-Ser-Trp-Arg-Gln-Ala-c[Azk-Phe-Val-Asp-Pra]-Tyr-NH2	99%	4%			
Ac-Ser-Trp-Arg-Gln-Ala-c[Pra-Phe-Val-Asp-Azo]-Tyr-NH2	>99%	11%			
Ac-c[Pra-Trp-Arg-Gln-Azk]-Ala-Phe-Val-Asp-Ser-Tyr-NH2			>99%	11%	
Ac-c[Pra-Trp-Arg-Gln-Azk]-c[Pra-Phe-Val-Asp-Azk]-Tyr-NH2	99%	23%			
H-WRQAAFVDSY-OH			>99%	43%	
Ac-c[D-Pra-Trp-Arg-Gln-Azk]-Ala-Phe-Val-Asp-Ser-Tyr-NH2	96%	8%			
Ac-Ser-Trp-Arg-Gln-Ala-Ala-Phe-c[Pra-Asp-Ser-Tyr-Azo]-NH2	98%	7%			
Ac-Ser-Trp-Arg-Gln-Ala-c[Pra-Phe-Val-Asp-Azk]-Tyr-NH2			>99%	19%	
H-SWRQAAFVDSYCWA-OH	96%	6%			
Ac-c[Pra-Trp-Arg-Gln-Azo]-Ala-Phe-Val-Asp-Ser-Tyr-NH2	98%	8%			
Ac-c[Azk-Trp-Arg-Gln-Pra]-Ala-Phe-Val-Asp-Ser-Tyr-NH2	97%	3%			
Ac-Ser-Trp-Arg-Gln-Ala-Ala-c[Pra-Val-Asp-Ser-Azk]-NH2	>99%	6%			
Ac-c[hPra-Trp-Arg-Gln-Azk]-Ala-Phe-Val-Asp-Ser-Tyr-NH2	99%	18%			
H-K[Ahx]WRQAAFVDSY-OH			98%	7%	
Ac-Ser-Trp-Arg-Gln-Ala-Ala-Phe-c[Pra-Asp-Ser-Tyr-Azk]-NH2	>99%	7%			
H-Lys-Ahx-c[Pra-Trp-Arg-Gln-Azk]-c[Pra-Phe-Val-Asp-Azk]-Tyr-NH2			99%	12%	
Ac-Ser-Trp-Arg-Gln-Ala-c[D-Pra-Phe-Val-Asp-Azk]-Tyr-NH2	99%	15%			
Ac-Ser-Trp-Arg-Gln-Ala-c[hPra-Phe-Val-Asp-Azk]-Tyr-NH2	99%	26%			
Ac-Ser-Trp-Arg-Gln-Ala-Ala-c[Pra-Val-Asp-Ser-Azo]-NH2	98%	9%			a dimeric side product was generated alongside the desired product
